Results published in patent US20250019435A1.
Results are given in words; binding and its absence hold for the method and conditions named. Some results given as binding are weak or reduced against the parent protein; the word gives no strength. Tags and fused reporters may be left off the sequences shown.

The chains behind the UniProt entries cited, without tags or fusion partners. Where a name states a change or a piece, a line headed by the entry shows the natural chain unless it says otherwise.
UniProt Q8N109: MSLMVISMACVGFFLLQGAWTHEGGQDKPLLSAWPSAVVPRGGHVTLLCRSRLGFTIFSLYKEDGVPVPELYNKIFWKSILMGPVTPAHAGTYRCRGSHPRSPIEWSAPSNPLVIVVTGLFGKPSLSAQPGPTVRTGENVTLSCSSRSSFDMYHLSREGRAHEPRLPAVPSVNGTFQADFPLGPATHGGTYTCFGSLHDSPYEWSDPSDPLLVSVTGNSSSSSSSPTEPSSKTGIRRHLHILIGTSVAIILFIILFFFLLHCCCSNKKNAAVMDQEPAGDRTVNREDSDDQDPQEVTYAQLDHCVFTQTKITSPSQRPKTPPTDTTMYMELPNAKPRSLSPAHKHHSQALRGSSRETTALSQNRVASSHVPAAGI

Key:
[1] = biological target: KIR2DL5 wild type (KIR2DL5A*001) expressed on cells (human) (UniProt Q8N109); experiment: flow cytometry, PVR-Ig on KIR2DL5/3T3 cells
[2] = biological target: KIR2DL5 wild type (KIR2DL5A*001) expressed on cells (human) (UniProt Q8N109); experiment: flow cytometry, PVR-Ig titrated on KIR2DL5/3T3
[3] = biological target: KIR2DL5 D0 variant G97S expressed on 3T3 cells (human) (UniProt Q8N109); experiment: flow cytometry, PVR-Ig on transduced 3T3 cells
[4] = biological target: KIR2DL5 D0 variant P112S expressed on 3T3 cells (human) (UniProt Q8N109); experiment: flow cytometry, PVR-Ig on transduced 3T3 cells
[5] = biological target: KIR2DL5 D0 variant R52H expressed on 3T3 cells (human) (UniProt Q8N109); experiment: flow cytometry, PVR-Ig on transduced 3T3 cells
[6] = biological target: KIR2DL5 D0 variant T46S expressed on 3T3 cells (human) (UniProt Q8N109); experiment: flow cytometry, PVR-Ig on transduced 3T3 cells
[7] = biological target: KIR2DL5 wild type (KIR2DL5A*001) expressed on cells (human) (UniProt Q8N109); experiment: flow cytometry, PVR-Ig on transduced 3T3 cells
[8] = biological target: KIR2DL5 wild type (KIR2DL5A*001) expressed on cells (human) (UniProt Q8N109); experiment: flow cytometry, PVR-Ig on 3T3 cells expressing the allele
[9] = biological target: KIR2DL5 D0 variant G97S expressed on 3T3 cells (human) (UniProt Q8N109); experiment: flow cytometry, PVR-Ig on 3T3 cells expressing the variant
[10] = biological target: KIR2DL5 D0 variant P112S expressed on 3T3 cells (human) (UniProt Q8N109); experiment: as above
[11] = biological target: KIR2DL5 D0 variant R52H expressed on 3T3 cells (human) (UniProt Q8N109); experiment: as above
[12] = biological target: KIR2DL5 D0 variant T46S expressed on 3T3 cells (human) (UniProt Q8N109); experiment: as above
[13] = biological target: KIR2DL5 wild type (KIR2DL5A*001) expressed on cells (human) (UniProt Q8N109); experiment: flow cytometry, PVR-Ig on 3T3 cells expressing KIR2DL5 alleles
[14] = biological target: KIR2DL5 wild type (KIR2DL5A*001) expressed on cells (human) (UniProt Q8N109); experiment: flow cytometry, PVR-Ig on transduced 3T3 cells (discussion of the examples)
[15] = biological target: KIR2DL5 wild type (KIR2DL5A*001) expressed on cells (human) (UniProt Q8N109); experiment: flow cytometry, PVR-Ig preincubated with His-tagged protein, on KIR2DL5/3T3 cells
[16] = biological target: KIR2DL5 wild type (KIR2DL5A*001) expressed on cells (human) (UniProt Q8N109); experiment: flow cytometry, fusion protein on KIR2DL5/3T3, anti-human IgG Fc detection
[17] = biological target: KIR2DL5 wild type (KIR2DL5A*001) expressed on cells (human) (UniProt Q8N109); experiment: flow cytometry competition with His-tagged TIGIT, CD96 and DNAM-1 (discussion of the examples)
[18] = biological target: KIR2DL5 wild type (KIR2DL5A*001) expressed on cells (human) (UniProt Q8N109); experiment: flow cytometry, PVR-Ig preincubated with His-tagged DNAM-1, TIGIT or CD96, on KIR2DL5/3T3 cells
[19] = biological target: KIR2DL5 wild type (KIR2DL5A*001) expressed on cells (human) (UniProt Q8N109); experiment: flow cytometry, PVR-Ig 20 µg/mL preincubated with the His-tagged proteins, then KIR2DL5/3T3
[20] = biological target: T1, PVR expressed on transduced cells (PVR-YFP) (UniProt P15151); experiment: flow cytometry, PVR/3T3 cells preincubated with CD96-His, then KIR2DL5-Ig
T1 sequence (looked up): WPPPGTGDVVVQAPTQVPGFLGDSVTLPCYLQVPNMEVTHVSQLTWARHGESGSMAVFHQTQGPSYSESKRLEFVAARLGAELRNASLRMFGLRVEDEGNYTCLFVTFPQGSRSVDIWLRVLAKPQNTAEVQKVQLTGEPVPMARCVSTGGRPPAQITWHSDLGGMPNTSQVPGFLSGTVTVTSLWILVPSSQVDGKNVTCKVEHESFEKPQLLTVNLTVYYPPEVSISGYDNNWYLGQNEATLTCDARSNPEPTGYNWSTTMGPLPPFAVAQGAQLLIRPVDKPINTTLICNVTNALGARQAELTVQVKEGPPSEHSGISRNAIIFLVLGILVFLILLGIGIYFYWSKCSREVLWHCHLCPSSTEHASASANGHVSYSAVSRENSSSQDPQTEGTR

Measured: binding

B1: PVR-Ig fusion protein (Fc fusion, UniProt P15151 27-343, looked up, not shown: a dimerising Fc or GST)
chain: GDVVVQAPTQVPGFLGDSVTLPCYLQVPNMEVTHVSQLTWARHGESGSMAVFHQTQGPSYSESKRLEFVAARLGAELRNASLRMFGLRVEDEGNYTCLFVTFPQGSRSVDIWLRVLAKPQNTAEVQKVQLTGEPVPMARCVSTGGRPPAQITWHSDLGGMPNTSQVPGFLSGTVTVTSLWILVPSSQVDGKNVTCKVEHESFEKPQLLTVNLTVYYPPEVSISGYDNNWYLGQNEATLTCDARSNPEPTGYNWSTTMGPLPPFAVAQGAQLLIRPVDKPINTTLICNVTNALGARQAELTVQVKEGPPSEHSGISRN
binds: [1] | [2] | [3] | [4] | [5] | [6] | [7] | [8] | [9] | [10] | [11] | [12] | [13] | [14] | [15] | [16] | [17] | [18] | [19]

B2: recombinant human CD96-His tag protein (receptor, UniProt P40200-2 22-503, looked up, not shown: small tags and cut ends)
chain: VWEKTVNTEENVYATLGSDVNLTCQTQTVGFFVQMQWSKVTNKIDLIAVYHPQYGFYCAYGRPCESLVTFTETPENGSKWTLHLRNMSCSVSGRYECMLVLYPEGIQTKIYNLLIQTHVTADEWNSNHTIEIEINQTLEIPCFQNSSSKISSEFTYAWSVEDNGTQETLISQNHLISNSTLLKDRVKLGTDYRLHLSPVQIFDDGRKFSCHIRVGPNKILRSSTTVKVFAKPEIPVIVENNSTDVLVERRFTCLLKNVFPKANITWFIDGSFLHDEKEGIYITNEERKGKDGFLELKSVLTRVHSNKPAQSDNLTIWCMALSPVPGNKVWNISSEKITFLLGSEISSTDPPLSVTESTLDTQPSPASSVSPARYPATSSVTLVDVSALRPNTTPQPSNSSMTTRGFNYPWTSSGTDTKKSVSRIPSETYSSSPSGAGSTLHDNVFTSTARAFSEVPTTANGSTKTNHVHITGIVVNKPKDGM
binds: [20]
